# According to PubChem BioAssay AID256 (DTP/NCI, 2004):
# The list shows only some results of the screen, not a fair sample: it is rich in T/C values a quarter to a half above the control, in often repeated tests (any T/C) and in doses without a T/C. Further doses and runs are listed elsewhere. T/C is the treated group as % of the vehicle group. Some doses have a count of surviving animals in place of a T/C: the source holds a T/C of zero for them, seemingly a mark for toxic or unscored doses. Some survivor counts are full or nearly so, which does not show that the dose was tolerated: survival well below the control is almost never listed, so the zero probably covers shortened survival too. Survivors were counted at the toxicity check, usually on the fifth day, unless a day is given; later deaths do not show. Schedule codes are those of the source, read here as Q, the interval in days (D) or hours (H), X, the number of doses. Where survival is the endpoint, the PubChem record calls one and a half times the control and up active, and a quarter to a half above the control has no call in these data; cut-offs in other NCI protocols can differ.
# Tested on: CD2F1 mice, L1210 leukemia ip, survival T/C
# Test: NCI In Vivo Anticancer Drug Screen. Data for tumor model L1210 Leukemia (intraperitoneal) in CD2F1 (CDF1) mice
# Details: higher T/C = longer survival
# Summary of the method: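 Read-out first: treated-group measurement over vehicle-control measurement, expressed as a ratio. Animals bore a transplanted tumor line and were dosed with compound or vehicle.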
# [1] = T/C endpoint: mean survival time, dose: 100.0 mg/kg/injection, schedule: Q04DX003 (ip), vehicle: saline with Tween-80
# [2] = T/C endpoint: mean survival time, dose: 200.0 mg/kg/injection, schedule: Q04DX003 (ip), vehicle: saline with Tween-80
# [3] = T/C endpoint: mean survival time, dose: 400.0 mg/kg/injection, schedule: Q04DX003 (ip), vehicle: saline with Tween-80
# [4] = T/C endpoint: mean survival time, dose: 400.0 mg/kg/injection, schedule: Q01DX009 (ip), vehicle: saline with Tween-80
smiles,measurement,setting,value
N#CCCOP(=O)(N1CC1)N1CC1,T/C,"T/C endpoint: mean survival time, dose: 16.0 mg/kg/injection, schedule: Q01DX009 (ip), vehicle: water",139 % of control
same,T/C,"T/C endpoint: mean survival time, dose: 32.0 mg/kg/injection, schedule: Q01DX009 (ip), vehicle: water",131 % of control
same,T/C,"T/C endpoint: mean survival time, dose: 62.5 mg/kg/injection, schedule: Q01DX001 (ip), vehicle: Klucel (hydroxypropylcellulose) (HPC)",145 % of control
same,survivor count,"T/C endpoint: mean survival time, dose: 125.0 mg/kg/injection, schedule: Q01DX001 (ip), vehicle: Klucel (hydroxypropylcellulose) (HPC)",2 of 6
same,survivor count,"T/C endpoint: mean survival time, dose: 250.0 mg/kg/injection, schedule: Q01DX001 (ip), vehicle: Klucel (hydroxypropylcellulose) (HPC)",0 of 6
same,survivor count,"T/C endpoint: mean survival time, dose: 500.0 mg/kg/injection, schedule: Q01DX001 (ip), vehicle: Klucel (hydroxypropylcellulose) (HPC)",1 of 6
same,survivor count,"T/C endpoint: mean survival time, dose: 1000.0 mg/kg/injection, schedule: Q01DX001 (ip), vehicle: Klucel (hydroxypropylcellulose) (HPC)",0 of 6
[Cl][Pt+2][Cl].[NH-]c1cccc(F)c1.[NH-]c1cccc(F)c1,survivor count,[1],2 of 3
same,survivor count,[2],0 of 3
CCCNC(=O)NO,survivor count,"T/C endpoint: mean survival time, dose: 62.0 mg/kg/injection, schedule: Q03HX024 (ip), vehicle: saline with Tween-80",5 of 8
same,survivor count,"T/C endpoint: mean survival time, dose: 93.0 mg/kg/injection, schedule: Q03HX024 (ip), vehicle: saline with Tween-80",3 of 8
same,survivor count,"T/C endpoint: mean survival time, dose: 140.0 mg/kg/injection, schedule: Q03HX024 (ip), vehicle: saline with Tween-80",0 of 8
same,survivor count,"T/C endpoint: mean survival time, dose: 210.0 mg/kg/injection, schedule: Q03HX024 (ip), vehicle: saline with Tween-80",0 of 8
COc1cc2c(oc(=O)c3cc(C)cc(OC)c32)c2c(C3OC(C)C(O)C(C)(O)C3O)ccc(O)c12 (stereo not drawn),T/C,"T/C endpoint: median survival time, dose: 50.0 mg/kg/injection, schedule: Q01DX005 (ip), vehicle: DMSO",125 % of control
same,T/C,"T/C endpoint: median survival time, dose: 200.0 mg/kg/injection, schedule: Q01DX005 (ip), vehicle: DMSO",125 % of control
CC1CC2OC(=O)C(O)(CO)C2CC2(C)C(=O)C=CC12 (stereo not drawn),T/C,"T/C endpoint: mean survival time, dose: 100.0 mg/kg/injection, schedule: Q04DX002 (ip), vehicle: saline",135 % of control
O=C(O)CCC(=O)O,survivor count,"T/C endpoint: mean survival time, dose: 320.0 mg/kg/injection, schedule: Q01DX001 (ip), vehicle: water",2 of 6
same,survivor count,"T/C endpoint: mean survival time, dose: 640.0 mg/kg/injection, schedule: Q01DX001 (ip), vehicle: water",0 of 6
COC(OC)c1[nH]c(=O)[nH]c(=O)c1F.[Hg],survivor count,"T/C endpoint: mean survival time, dose: 100.0 mg/kg/injection, schedule: Q04DX003 (ip), vehicle: saline sonified",1 of 6
same,survivor count,"T/C endpoint: mean survival time, dose: 200.0 mg/kg/injection, schedule: Q04DX003 (ip), vehicle: saline sonified",0 of 6
same,survivor count,"T/C endpoint: mean survival time, dose: 400.0 mg/kg/injection, schedule: Q04DX003 (ip), vehicle: saline sonified",0 of 6
Nc1cccc(C(=O)c2ccc(-c3nc4ncnc(N)c4[nH]3)cc2)c1,survivor count,[1],6 of 6
same,survivor count,[2],5 of 6
same,survivor count,[3],6 of 6
CN(CCO)N=Nc1ccccc1,survivor count,"T/C endpoint: mean survival time, dose: 300.0 mg/kg/injection, schedule: Q01DX001 (ip), vehicle: saline",1 of 6
C=CCNC(=O)C[n+]1cccc(C(=O)Nc2ccc(Cl)cc2)c1,survivor count,[2],0 of 6
same,survivor count,[3],0 of 6
NCCc1nc(N)nc(N)c1-c1ccc(Cl)cc1,survivor count,"T/C endpoint: mean survival time, dose: 400.0 mg/kg/injection, schedule: Q01DX001 (ip), vehicle: saline with Tween-80",1 of 6
CC(=O)Oc1cc([N+](=O)[O-])ccc1C(=O)O,survivor count,[4],2 of 6
CCOC(=O)N(Cl)Cl,survivor count,"T/C endpoint: mean survival time, dose: 25.0 mg/kg/injection, schedule: Q04DX003 (ip), vehicle: saline",1 of 3
same,survivor count,"T/C endpoint: mean survival time, dose: 50.0 mg/kg/injection, schedule: Q04DX003 (ip), vehicle: saline",0 of 3
Cc1cc2nc3c4ccccc4scc-3c2cc1C,survivor count,"T/C endpoint: mean survival time, dose: 100.0 mg/kg/injection, schedule: Q01DX009 (ip), vehicle: saline with Tween-80",0 of 6
same,survivor count,"T/C endpoint: mean survival time, dose: 200.0 mg/kg/injection, schedule: Q01DX009 (ip), vehicle: saline with Tween-80",0 of 6
same,survivor count,[4],0 of 6
CC(=O)N(C)NC(=O)c1ccccn1,survivor count,"T/C endpoint: mean survival time, dose: 100.0 mg/kg/injection, schedule: Q01DX009 (ip), vehicle: water",6 of 6
same,survivor count,"T/C endpoint: mean survival time, dose: 400.0 mg/kg/injection, schedule: Q01DX009 (ip), vehicle: water",0 of 6
COc1cc2c3c(cccc3c1)C(=O)N(CCN(C)C)C2=O,survivor count,"T/C endpoint: mean survival time, dose: 160.0 mg/kg/injection, schedule: Q01DX009 (ip), vehicle: saline with Tween-80",4 of 6
Fc1c(F)c(F)c(-c2c(F)c(F)c(-c3c(F)c(F)c(-c4c(F)c(F)c(F)c(F)c4F)c(F)c3F)c(F)c2F)c(F)c1F,survivor count,[4],6 of 6
